This passage reports binding results from doi:10.1101/2023.12.07.570558 (bioRxiv, 2023).

These are yes or no findings as the source states them, for the method shown. In cells and extracts the contact can be indirect. A result given as binding can be weak or reduced; the word gives no strength. Where a sequence is shown, tags or fusion partners need not be part of it.

The target of the experiment is T1, Myc-tagged TULP3 (expressed in HEK293T cells) (human) (UniProt O75386).
T1 sequence: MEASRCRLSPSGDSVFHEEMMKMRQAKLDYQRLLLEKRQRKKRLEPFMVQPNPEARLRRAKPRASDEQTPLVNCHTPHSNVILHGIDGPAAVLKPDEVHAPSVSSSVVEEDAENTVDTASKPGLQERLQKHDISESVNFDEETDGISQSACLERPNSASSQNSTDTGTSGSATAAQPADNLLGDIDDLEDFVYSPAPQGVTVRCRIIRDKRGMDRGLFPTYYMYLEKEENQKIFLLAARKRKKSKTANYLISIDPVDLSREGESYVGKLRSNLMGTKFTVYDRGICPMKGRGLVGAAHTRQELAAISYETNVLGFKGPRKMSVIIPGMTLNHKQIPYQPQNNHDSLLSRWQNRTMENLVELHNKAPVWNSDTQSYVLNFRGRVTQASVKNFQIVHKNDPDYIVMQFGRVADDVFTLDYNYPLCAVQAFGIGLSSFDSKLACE
Kind of experiment: co-IP.

Consider HA-tagged SIRT3 (enzyme), for which the binding entry was “binds”.
